Results are given in words; binding and its absence hold for the method and conditions named. In cells and extracts the contact can be indirect. Some results given as binding are weak or reduced against the parent protein; the word gives no strength.
Experiments:
[1] = target: hERG1 potassium channel (K+ channel encoded by the human ether-à-go-go-related gene 1) (human) (UniProt Q12809); test: co-IP; HEK–hERG1 cells seeded on FN at T90; co-IP between Gαi3 and hERG1; precipitating antibody not stated for this panel
[2] = target: β1 integrin (human (endogenous in HEK 293, PANC-1, HCT116)) (UniProt P05556); test: co-IP; HEK 293 cells stably expressing hERG1 (wild type, K525C or R531C), starved overnight, seeded on FN, T0 to T300; 1% NP-40 lysate (150 mM NaCl, 50 mM Tris–HCl pH 8, 5 mM EDTA), 1.5 mg protein; IP with the anti-β1 antibody TS2/16 overnight at 4°C, Western blot; also cells stimulated with TS2/16 and treated with PTX, gallein, LY294002 or scDb–hERG1–β1 (20 μg/ml)
[3] = target: β1 integrin (human (endogenous in HEK 293, PANC-1, HCT116)) (UniProt P05556); test: condition: only cells treated overnight with PTX (100 ng/ml); co-IP; HEK–hERG1 cells treated overnight with PTX (100 ng/ml) and seeded on FN for 90 min; co-IP of Gαi3 and β1 integrin
[4] = target: β1 integrin (human (endogenous in HEK 293, PANC-1, HCT116)) (UniProt P05556); test: co-IP; HEK–hERG1 cells seeded on BSA-coated dishes instead of FN; time course; IP with TS2/16
[5] = target: β1 integrin (human (endogenous in HEK 293, PANC-1, HCT116)) (UniProt P05556); test: co-IP; HEK–hERG1–Tr and HEK–KCNE1–hERG1–Tr cells seeded on FN at T90; IP with the TS2/16 antibody
[6] = target: β1 integrin (human (endogenous in HEK 293, PANC-1, HCT116)) (UniProt P05556); test: co-IP; PANC-1 cells seeded on FN, time course; IP with the TS2/16 antibody; also cells treated with PTX, scDb–hERG1–β1 (20 μg/ml) or E4031 (40 μM)
[7] = target: β1 integrin (human (endogenous in HEK 293, PANC-1, HCT116)) (UniProt P05556); test: co-IP; HCT116 cells seeded on FN, time course; IP with the TS2/16 antibody; also cells treated with PTX, scDb–hERG1–β1 (20 μg/ml) or E4031 (40 μM)

The chains behind the UniProt entries cited, without tags or fusion partners.
UniProt Q12809: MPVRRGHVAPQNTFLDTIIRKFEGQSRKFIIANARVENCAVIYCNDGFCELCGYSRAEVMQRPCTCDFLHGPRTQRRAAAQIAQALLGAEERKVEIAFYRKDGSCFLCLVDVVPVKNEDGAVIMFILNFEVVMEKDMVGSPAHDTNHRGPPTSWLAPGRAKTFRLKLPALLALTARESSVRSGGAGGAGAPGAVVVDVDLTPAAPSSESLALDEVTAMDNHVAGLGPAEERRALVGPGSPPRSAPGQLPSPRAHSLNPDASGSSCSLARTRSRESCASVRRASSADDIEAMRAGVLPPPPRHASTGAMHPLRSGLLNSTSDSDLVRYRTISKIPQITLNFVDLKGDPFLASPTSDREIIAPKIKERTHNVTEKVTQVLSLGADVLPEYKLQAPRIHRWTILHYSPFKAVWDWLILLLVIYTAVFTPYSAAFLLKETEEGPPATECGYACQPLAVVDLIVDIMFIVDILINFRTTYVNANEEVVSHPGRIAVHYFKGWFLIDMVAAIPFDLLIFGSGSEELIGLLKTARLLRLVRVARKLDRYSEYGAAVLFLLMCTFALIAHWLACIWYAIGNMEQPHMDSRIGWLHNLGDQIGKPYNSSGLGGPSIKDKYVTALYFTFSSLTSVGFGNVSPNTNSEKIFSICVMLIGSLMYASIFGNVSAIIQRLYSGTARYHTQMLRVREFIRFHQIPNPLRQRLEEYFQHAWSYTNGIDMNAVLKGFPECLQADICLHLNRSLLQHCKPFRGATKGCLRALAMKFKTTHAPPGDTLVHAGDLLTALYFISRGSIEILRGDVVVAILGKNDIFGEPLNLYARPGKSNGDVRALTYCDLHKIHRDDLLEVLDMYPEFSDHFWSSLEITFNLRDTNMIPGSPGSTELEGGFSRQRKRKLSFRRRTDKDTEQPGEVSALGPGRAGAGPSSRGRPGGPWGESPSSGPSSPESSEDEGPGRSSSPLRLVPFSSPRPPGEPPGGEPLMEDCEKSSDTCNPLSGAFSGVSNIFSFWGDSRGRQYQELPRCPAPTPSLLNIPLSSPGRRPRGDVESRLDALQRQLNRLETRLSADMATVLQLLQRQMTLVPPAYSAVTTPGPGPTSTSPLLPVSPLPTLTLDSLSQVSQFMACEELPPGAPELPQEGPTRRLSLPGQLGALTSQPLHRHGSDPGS
UniProt P05556: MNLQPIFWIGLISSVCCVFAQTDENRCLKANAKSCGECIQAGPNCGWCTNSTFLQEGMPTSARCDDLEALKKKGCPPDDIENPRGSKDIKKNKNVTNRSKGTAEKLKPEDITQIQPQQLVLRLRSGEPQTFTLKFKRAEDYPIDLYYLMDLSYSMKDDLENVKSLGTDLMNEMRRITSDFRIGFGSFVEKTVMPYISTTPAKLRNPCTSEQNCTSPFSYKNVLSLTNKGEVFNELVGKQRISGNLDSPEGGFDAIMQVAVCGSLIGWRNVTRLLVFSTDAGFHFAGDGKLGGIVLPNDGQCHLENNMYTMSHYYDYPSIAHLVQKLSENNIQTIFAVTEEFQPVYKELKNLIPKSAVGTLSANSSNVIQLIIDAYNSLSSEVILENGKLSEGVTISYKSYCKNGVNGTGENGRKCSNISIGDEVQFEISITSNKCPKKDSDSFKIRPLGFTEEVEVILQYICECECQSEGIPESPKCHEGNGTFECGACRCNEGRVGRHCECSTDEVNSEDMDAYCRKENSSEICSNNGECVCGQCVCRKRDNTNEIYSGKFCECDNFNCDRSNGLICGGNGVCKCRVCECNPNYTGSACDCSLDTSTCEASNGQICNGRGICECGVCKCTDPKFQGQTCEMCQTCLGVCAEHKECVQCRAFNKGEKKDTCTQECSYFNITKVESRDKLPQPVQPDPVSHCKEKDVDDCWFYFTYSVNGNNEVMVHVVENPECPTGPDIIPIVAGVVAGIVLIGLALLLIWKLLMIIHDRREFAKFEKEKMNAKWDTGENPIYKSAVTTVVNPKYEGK

Substance: Gαi3 (from UniProt P08754 1-354)
- binding [1]: no binding
- binding [2]: binds
- binding [3]: no binding

Substance: hERG1 potassium channel (K+ channel encoded by the human ether-à-go-go-related gene 1) (from UniProt Q12809 1-1159)
- binding [2]: binds
- binding [4]: no binding (condition: cells seeded on BSA instead of FN)

Substance: hERG1 transiently transfected in HEK 293 cells (HEK–hERG1–Tr, HEK–KCNE1–hERG1–Tr) (from UniProt Q12809 1-1159)
- binding [5]: binds

Substance: hERG1, endogenous in PANC-1 and HCT116 cancer cells (from UniProt Q12809 1-1159)
- binding [6]: binds
- binding [7]: binds
